From patent publication US20100167357A1 (CELLECTIS, published 2010)
No constants are given. Whether binding was seen depends on the method and setting. Binding seen in cells or lysates may run through a third protein. These calls come from enrichment with a bait or labelling near it, and not all partners need be listed. Sequences can lack the tags named with a protein.

Sequences of proteins named here, by UniProt entry; tags and fusion partners are left off. A change or cut given only in a name is not applied to a line headed by its entry.
UniProt P05725: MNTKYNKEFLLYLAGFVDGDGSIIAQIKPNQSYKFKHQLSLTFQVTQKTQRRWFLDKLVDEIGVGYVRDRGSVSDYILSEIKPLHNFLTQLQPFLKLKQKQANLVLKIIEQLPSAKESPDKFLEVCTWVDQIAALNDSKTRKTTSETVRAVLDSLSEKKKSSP

Molecular target: T1, QAN-B3 (QAN with K7E, F54G, L58M, K96E), His tag removed, co-expressed from pCDFDuet1 (Chlamydomonas reinhardtii (Chlamydomonas smithii)) (UniProt P05725)
T1 sequence: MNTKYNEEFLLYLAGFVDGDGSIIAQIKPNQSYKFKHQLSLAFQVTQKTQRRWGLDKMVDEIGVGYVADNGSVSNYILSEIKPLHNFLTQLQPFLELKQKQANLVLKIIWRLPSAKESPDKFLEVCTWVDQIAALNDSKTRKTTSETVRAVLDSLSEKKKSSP
Test: co-expression in E. coli, His-tag co-purification (2 bands of about equal amount on SDS-PAGE), mass spectroscopy, analytical ultracentrifugation

B1: KTG-A2 (KTG with K7R, E8R, F54W, E61R, K96R, L97F) (enzyme)
chain: MNTKYNRRFLLYLAGFVDGDGSIIAQIKPNQSYKFKHQLSLAFKVTQKTQRRWWLDKLVDRIGVGYVTDGGSVSNYILSEIKPLHNFLTQLQPFLRFKQKQANLVLKIIWRLPSAKESPDKFLEVCTWVDQIAALNDSKTRKTTSETVRAVLDSLSEKKKSSP
notes: Designed monomer; Expressed with a His tag from pET-series plasmid pCLS1211
binding: binds
